Results are given in words; binding and its absence hold for the method and conditions named. Binding seen in cells or lysates may run through a third protein. Here binding means that the protein was enriched with, or labelled near, the bait; the list need not be complete. For some of these results: A no says only that the protein was not detected with the bait.
Tests used:
[1] = molecular target: Flag-tagged AKT1 E17K mutant (UniProt P31749); assay: affinity purification with mass spectrometry; Flag immunoprecipitation from MCF-10A cells transfected with Flag-AKT1^WT or Flag-AKT1^E17K, with SVIL-AS1 knockdown; differential protein bands sent for MS
[2] = molecular target: Flag-tagged AKT1 wild-type (UniProt P31749); assay: as above
[3] = molecular target: Flag-tagged AKT1 E17K mutant (UniProt P31749); assay: condition: only control cells without SVIL-AS1 knockdown; affinity purification with mass spectrometry; Flag immunoprecipitation from control MCF-10A cells (no SVIL-AS1 knockdown) transfected with Flag-AKT1^WT or Flag-AKT1^E17K; differential protein bands sent for MS
[4] = molecular target: Flag-tagged AKT1 wild-type (UniProt P31749); assay: as above

Protein sequences, listed by entry. Tags and fused reporters are not part of them. Lines headed by an entry give the natural chain unless they say otherwise; changes in a name come on top.
UniProt P31749: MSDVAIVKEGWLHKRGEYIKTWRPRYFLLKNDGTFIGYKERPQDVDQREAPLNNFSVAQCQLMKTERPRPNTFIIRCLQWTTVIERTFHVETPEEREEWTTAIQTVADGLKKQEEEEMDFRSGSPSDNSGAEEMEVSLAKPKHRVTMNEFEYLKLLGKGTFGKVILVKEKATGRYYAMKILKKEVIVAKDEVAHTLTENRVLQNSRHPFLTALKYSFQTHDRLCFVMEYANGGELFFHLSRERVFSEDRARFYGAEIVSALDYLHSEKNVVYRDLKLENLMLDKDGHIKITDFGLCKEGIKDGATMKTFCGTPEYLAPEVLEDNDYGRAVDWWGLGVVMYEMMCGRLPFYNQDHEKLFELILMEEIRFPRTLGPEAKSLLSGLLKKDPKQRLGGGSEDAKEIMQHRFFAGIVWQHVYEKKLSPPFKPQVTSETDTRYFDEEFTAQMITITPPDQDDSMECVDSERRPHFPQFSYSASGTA
UniProt P63151: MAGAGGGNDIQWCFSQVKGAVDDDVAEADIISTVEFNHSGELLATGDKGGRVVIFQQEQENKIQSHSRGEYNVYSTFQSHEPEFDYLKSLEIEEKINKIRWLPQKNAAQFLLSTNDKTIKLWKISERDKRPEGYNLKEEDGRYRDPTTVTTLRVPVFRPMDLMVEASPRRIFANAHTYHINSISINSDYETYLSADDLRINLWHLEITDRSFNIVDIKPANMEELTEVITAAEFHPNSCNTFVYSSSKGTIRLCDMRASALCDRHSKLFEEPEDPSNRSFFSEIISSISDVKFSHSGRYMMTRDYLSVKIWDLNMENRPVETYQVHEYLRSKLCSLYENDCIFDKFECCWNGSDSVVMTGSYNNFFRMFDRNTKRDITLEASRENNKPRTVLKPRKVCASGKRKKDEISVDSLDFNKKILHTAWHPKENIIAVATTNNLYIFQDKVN

- binding [1]: binds
- binding [2]: binds
- binding [3]: no binding
- binding [4]: no binding
Substance: PPP2R2A, regulatory subunit (PP2A B) of the PP2A holoenzyme (from UniProt P63151 1-447)

— PMC12097031
